According to the supplement of paper PMC10849652:
The list shows a part of the results.

The chains behind the UniProt entries cited, without tags or fusion partners. Where a name states a change or a piece, a line headed by the entry shows the natural chain unless it says otherwise.
UniProt Q15527: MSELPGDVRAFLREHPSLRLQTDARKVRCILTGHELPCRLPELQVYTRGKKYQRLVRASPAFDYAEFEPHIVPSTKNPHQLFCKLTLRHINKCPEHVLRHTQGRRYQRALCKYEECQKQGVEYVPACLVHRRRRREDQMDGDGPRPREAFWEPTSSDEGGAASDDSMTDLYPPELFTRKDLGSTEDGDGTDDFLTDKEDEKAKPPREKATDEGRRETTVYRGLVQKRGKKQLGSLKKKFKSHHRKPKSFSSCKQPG
UniProt O60347: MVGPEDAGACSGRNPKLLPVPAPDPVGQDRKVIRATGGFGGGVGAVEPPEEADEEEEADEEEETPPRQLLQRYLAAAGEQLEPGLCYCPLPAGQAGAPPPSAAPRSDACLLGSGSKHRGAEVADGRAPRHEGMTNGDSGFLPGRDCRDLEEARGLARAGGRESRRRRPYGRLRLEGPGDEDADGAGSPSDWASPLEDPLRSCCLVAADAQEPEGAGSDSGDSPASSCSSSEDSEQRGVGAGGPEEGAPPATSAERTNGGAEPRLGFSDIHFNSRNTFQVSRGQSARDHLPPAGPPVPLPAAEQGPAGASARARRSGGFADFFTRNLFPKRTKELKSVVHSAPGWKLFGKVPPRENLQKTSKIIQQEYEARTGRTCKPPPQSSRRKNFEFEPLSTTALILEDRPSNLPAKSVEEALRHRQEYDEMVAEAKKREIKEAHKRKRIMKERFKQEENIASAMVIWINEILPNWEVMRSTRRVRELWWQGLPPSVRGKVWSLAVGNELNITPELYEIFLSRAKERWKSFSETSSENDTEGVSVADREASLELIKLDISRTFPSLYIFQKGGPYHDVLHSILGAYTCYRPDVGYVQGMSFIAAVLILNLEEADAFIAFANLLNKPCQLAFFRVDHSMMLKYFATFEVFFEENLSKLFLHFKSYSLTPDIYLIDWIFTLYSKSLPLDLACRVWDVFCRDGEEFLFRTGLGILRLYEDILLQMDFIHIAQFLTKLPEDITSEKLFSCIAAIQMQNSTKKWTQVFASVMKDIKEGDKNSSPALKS
UniProt Q92797: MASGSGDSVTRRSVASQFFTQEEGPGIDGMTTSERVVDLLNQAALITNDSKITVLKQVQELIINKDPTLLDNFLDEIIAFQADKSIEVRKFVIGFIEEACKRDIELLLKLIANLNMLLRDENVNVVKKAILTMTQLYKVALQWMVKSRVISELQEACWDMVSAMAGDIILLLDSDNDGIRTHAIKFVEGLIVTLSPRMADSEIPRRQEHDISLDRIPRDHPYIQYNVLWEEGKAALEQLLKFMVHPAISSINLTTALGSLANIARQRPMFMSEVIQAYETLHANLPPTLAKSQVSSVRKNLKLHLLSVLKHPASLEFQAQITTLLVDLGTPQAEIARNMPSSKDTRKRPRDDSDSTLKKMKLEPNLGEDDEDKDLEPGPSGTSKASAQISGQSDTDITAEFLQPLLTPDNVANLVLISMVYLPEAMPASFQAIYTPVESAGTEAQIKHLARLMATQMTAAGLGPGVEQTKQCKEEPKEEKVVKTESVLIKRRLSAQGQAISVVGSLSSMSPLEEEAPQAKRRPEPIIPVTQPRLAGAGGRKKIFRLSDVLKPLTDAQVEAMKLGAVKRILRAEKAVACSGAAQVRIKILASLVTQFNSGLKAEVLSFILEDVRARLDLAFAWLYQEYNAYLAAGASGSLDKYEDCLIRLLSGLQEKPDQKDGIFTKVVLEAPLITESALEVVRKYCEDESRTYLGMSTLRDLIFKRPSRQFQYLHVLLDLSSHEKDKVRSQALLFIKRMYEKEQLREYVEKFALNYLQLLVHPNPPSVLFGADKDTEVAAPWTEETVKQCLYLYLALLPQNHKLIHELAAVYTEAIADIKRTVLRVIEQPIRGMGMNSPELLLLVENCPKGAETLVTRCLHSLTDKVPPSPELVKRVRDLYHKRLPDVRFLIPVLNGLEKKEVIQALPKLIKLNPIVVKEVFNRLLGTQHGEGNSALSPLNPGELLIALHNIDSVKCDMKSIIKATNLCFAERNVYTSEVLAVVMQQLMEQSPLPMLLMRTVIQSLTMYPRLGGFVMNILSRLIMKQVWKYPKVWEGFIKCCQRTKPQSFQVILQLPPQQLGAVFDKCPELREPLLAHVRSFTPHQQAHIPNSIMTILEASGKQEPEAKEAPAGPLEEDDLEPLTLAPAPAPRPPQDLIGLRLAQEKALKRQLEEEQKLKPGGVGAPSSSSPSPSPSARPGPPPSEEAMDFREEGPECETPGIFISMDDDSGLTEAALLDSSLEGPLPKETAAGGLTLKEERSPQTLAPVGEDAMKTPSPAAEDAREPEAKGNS
UniProt Q9Y5B9, whole entry, looked up: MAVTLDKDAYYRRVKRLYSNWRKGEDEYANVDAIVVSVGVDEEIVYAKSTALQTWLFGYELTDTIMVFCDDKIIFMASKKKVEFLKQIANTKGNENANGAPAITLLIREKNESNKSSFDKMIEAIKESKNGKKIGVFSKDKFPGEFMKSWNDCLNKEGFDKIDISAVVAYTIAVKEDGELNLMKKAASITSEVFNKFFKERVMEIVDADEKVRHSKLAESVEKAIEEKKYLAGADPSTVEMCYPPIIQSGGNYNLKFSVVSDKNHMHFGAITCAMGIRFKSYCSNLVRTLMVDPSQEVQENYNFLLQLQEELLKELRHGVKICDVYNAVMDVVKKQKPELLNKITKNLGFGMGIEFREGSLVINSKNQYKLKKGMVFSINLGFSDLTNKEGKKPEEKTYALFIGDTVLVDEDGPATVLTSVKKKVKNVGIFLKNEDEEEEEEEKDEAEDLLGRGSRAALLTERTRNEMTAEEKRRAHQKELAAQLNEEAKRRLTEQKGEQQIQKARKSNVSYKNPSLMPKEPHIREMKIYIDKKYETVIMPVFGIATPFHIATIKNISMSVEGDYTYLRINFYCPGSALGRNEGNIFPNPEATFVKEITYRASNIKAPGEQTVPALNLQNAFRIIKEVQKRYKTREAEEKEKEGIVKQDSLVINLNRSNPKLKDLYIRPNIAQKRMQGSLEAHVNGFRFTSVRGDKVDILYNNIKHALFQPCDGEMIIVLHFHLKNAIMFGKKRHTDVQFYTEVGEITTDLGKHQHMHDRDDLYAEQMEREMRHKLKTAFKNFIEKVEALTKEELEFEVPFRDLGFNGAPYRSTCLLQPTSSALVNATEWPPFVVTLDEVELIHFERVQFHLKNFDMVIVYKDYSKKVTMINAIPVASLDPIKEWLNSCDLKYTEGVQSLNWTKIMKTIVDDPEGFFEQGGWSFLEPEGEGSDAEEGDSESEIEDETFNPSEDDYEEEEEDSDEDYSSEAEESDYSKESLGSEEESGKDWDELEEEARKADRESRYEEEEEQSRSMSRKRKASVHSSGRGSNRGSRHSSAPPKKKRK
UniProt Q96BN2: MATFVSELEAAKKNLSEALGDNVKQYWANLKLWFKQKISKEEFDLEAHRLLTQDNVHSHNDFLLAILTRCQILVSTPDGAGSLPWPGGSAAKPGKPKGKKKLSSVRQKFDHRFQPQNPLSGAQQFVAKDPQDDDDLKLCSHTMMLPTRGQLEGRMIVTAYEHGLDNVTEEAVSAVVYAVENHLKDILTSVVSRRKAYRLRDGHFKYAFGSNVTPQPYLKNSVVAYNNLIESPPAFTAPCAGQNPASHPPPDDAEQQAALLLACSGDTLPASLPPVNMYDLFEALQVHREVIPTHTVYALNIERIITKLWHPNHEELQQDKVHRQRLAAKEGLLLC

Assays:
Assay in all cases: log2 fold change, soluble protein after heating vs DMSO (PISA); higher = thermal stabilisation; K562 cells, 10 uM, 30 min; active = over 0.2 and 3.5 SD of the protein, either way, in both replicates (recomputed)
erlotinib = compound: C#Cc1cccc(Nc2ncnc3cc(OCCOC)c(OCCOC)cc23)c1 [erlotinib]
Outline: (§1)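 For each measurement, 10 μM compound was applied for 30 min to K562 cells at 2×10^6 cells/mL. Aliquots were heated for 3 min across 48°C-58°C, pooled, and extracted in PBS with 0.5% NP-40 at 4°C; the supernatant after 21,000xg for 90 min was soluble protein. This was quantified by TMTpro 16plex LC-MS/MS with channel sums equalised, and thermal stability was reported relative to control samples from duplicates, on a log2 fold-change scale.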

[1] = compound: C/C(=N\NC(=O)C1=CC(=CC=C1)S(=O)(=O)N2CCOCC2)/C3=C(C=CC(=C3)Cl)O
Outline: as §1

[2] = compound: C1=CC(=C(C=C1Cl)C2=NC3=NC=CN=C3C(=N2)NC4=CC=NC=C4)F
Outline: as §1

[3] = compound: C1=CC(=CC=C1C2=NC3=C(N2)C=C(C=C3)C(=O)N)OC4=CC=C(C=C4)Cl
Outline: as §1

[4] = compound: C1=CC2=C(C=CC(=C2)/C=C\3/C(=O)NC(=NCC4=CC=CS4)S3)N=C1
Outline: as §1

[5] = compound: C1=CC2=NC=CN=C2C=C1/C=C/3\C(=O)NC(=O)S3
Outline: as §1

[6] = compound: C1=CC=C(C=C1)C2=NC(=C(N2)C3=CC=NC=C3)C4=CC(=C(C=C4)Cl)O
Outline: as §1

[7] = compound: C1=CC=C2C(=C1)C3=NNC4=CC=CC(=C43)C2=O
Outline: as §1

[8] = compound: C1CCN(C1)C(=O)NC2=CC=CC(=C2)NC3=NC=C(C(=N3)NCCC4=CN=CN4)Br
Outline: as §1

[9] = compound: C1CN(CCC1(CC2=CC=C(C=C2)Cl)N)C3=NC=NC4=C3C=CN4
Outline: as §1

IRAK-1-4 Inhibitor I = compound: C1COCCN1CCN2C3=CC=CC=C3N=C2NC(=O)C4=CC(=CC=C4)[N+](=O)[O-] [IRAK-1-4 Inhibitor I]
Outline: as §1

ibrutinib = compound: C=CC(=O)N1CCC[C@@H](n2nc(-c3ccc(Oc4ccccc4)cc3)c3c(N)ncnc32)C1 [ibrutinib]
Outline: as §1

[10] = compound: CC(=O)c1cnc2ccc(-c3cc(Cl)c(O)c(Cl)c3)nc2c1N[C@H]1CC[C@H](CN(C)C)CC1
Outline: as §1

ralimetinib = compound: CC(C)(C)Cn1c(N)nc2ccc(-c3[nH]c(C(C)(C)C)nc3-c3ccc(F)cc3)nc21 [ralimetinib]
Outline: as §1

[11] = compound: CC(C)(O)CC(=O)NCCn1ccc2ncnc(Nc3ccc(Oc4cccc(C(F)(F)F)c4)c(Cl)c3)c21
Outline: as §1

[12] = compound: CC(C)C1=C2N=C(C=C(N2N=C1)NCC3=CC=CC=C3)NCCCCCCN
Outline: as §1

[13] = compound: CC(C)C[C@@H](C=O)NC(=O)[C@H](CC(C)C)NC(=O)[C@H](CC(C)C)NC(=O)OCc1ccccc1
Outline: as §1

pinometostat = compound: CC(C)N(C[C@H]1O[C@@H](n2cnc3c(N)ncnc32)[C@H](O)[C@@H]1O)[C@H]1C[C@@H](CCc2nc3cc(C(C)(C)C)ccc3[nH]2)C1 [pinometostat]
Outline: as §1

[14] = compound: CC1=C(C2=C(C=C1)C(=O)C3=CC=CC=C3N2CCCN)C
Outline: as §1

Measured: log2 fold change

SYNE1 (UniProt Q8NF91)
active: [1] -0.499
inactive: erlotinib 0.155 | [2] 0.07 | [3] -0.132 | [4] 0.132 | [5] -0.02 | [6] 0.058 | [7] 0 | [8] -0.038 | [9] 0.172 | IRAK-1-4 Inhibitor I 0.062 | ibrutinib -0.015 | [10] -0.398 | ralimetinib 0.127 | [11] -0.212 | [12] 0.097 | [13] 0.064 | pinometostat 0.002 | [14] 0.075

SURF2 (UniProt Q15527)
inactive: erlotinib 0.021 | [1] -0.067 | [2] 0.039 | [3] -0.03 | [4] -0.068 | [5] 0.113 | [6] -0.057 | [7] 0.027 | [8] -0.043 | [9] 0.009 | IRAK-1-4 Inhibitor I 0.071 | ibrutinib 0.004 | [10] -0.043 | ralimetinib -0.117 | [11] -0.014 | [12] 0.131 | [13] 0.022 | pinometostat 0.01
active: [14] -0.238

TBC1D12 (UniProt O60347)
inactive: erlotinib 0.01 | [1] 0.158 | [2] -0.045 | [3] -0.09 | [4] 0.024 | [7] -0.056 | [8] 0.064 | [9] -0.063 | [10] -0.108 | [11] -0.002 | [12] 0.009 | [14] 0.078

SYMPK (UniProt Q92797)
inactive: erlotinib -0.005 | [1] 0.179 | [2] 0.005 | [3] -0.114 | [4] 0.189 | [5] 0.033 | [6] 0.093 | [7] -0.065 | [8] -0.101 | [9] 0.04 | IRAK-1-4 Inhibitor I -0.029 | ibrutinib -0.087 | [10] -0.057 | ralimetinib 0.099 | [11] -0.296 | [12] -0.026 | [13] -0.061 | pinometostat -0.115 | [14] -0.033

SUPT16H (UniProt Q9Y5B9)
active: [14] -1.34
inactive: erlotinib 0.177 | [1] 0.25 | [2] 0.091 | [3] -0.012 | [4] 0.155 | [5] 0 | [6] 0.064 | [7] 0.098 | [8] -0.098 | [9] -0.011 | IRAK-1-4 Inhibitor I -0.155 | ibrutinib -0.139 | [10] -0.259 | ralimetinib -0.059 | [11] -0.174 | [12] -0.26 | [13] 0.083 | pinometostat 0.044

TADA1 (UniProt Q96BN2)
inactive: erlotinib 0.147 | [3] -0.051 | [12] -0.045
